# Laboratory results published in the supplement of paper PMC3047530.
# The list shows a part of the results. Most values come without repeats; read them as rough.
# Test system: Geomyces destructans
# Assay: growth inhibition relative to DMSO control; higher = stronger growth inhibition
# Conditions: 10 µM; 15 °C; incubation time 10 days
row,SMILES,growth inhibition
1,CC(C)Oc1ccc2c(=O)c(-c3ccccc3)coc2c1,-43.1%
2,C[N+](C)(C)CC(O)CC(=O)[O-] (centres undefined),-5.42%
3,CC(=O)O[C@@H]1/C=C/[C@@](C)(O)C(=O)[C@@H](C)C/C=C/[C@H]2[C@@H]3O[C@]3(C)[C@@H](C)[C@H]3[C@H](Cc4ccccc4)NC(=O)[C@@]312,-8.58%
4,COc1cc(O)c2c(=O)cc(C)oc2c1CC=C(C)C,-10.4%
5,OC[C@@H](O)[C@@H](O[C@@H]1O[C@H](CO)[C@@H](O)[C@H](O)[C@H]1O)[C@H](O)[C@@H](O)CO,-31.2%
6,Nc1ncnc2c1ncn2[C@@H]1O[C@H](CO)[C@@H](O)[C@@H]1O,-25.6%
7,O=c1[nH]cnc2nc[nH]c12,-6.51%
8,C[C@@](Cc1ccc(O)c(O)c1)(NN)C(=O)O,-14.4%
9,CC(=O)OC1CC(O)C(C)(C)C2CC(=O)C3(C)C(CCC4(C)C(c5ccoc5)OC(=O)C5OC543)C12C (centres undefined),0.74%
10,CN(C)CCC(c1ccc(Br)cc1)c1ccccn1 (centres undefined),-9.19%
11,NC[C@@H]1O[C@H](O[C@H]2[C@@H](O)[C@H](O[C@@H]3[C@@H](O)[C@H](N)C[C@H](N)[C@H]3O[C@H]3O[C@H](CO)[C@@H](O)C[C@H]3N)O[C@@H]2CO)[C@H](N)[C@@H](O)[C@@H]1O[C@H]1O[C@H](CO)[C@@H](O)[C@H](O)[C@@H]1O,-8.69%
12,Oc1c(Cl)cc(Cl)c2cccnc12,80.5%
13,N#Cc1ccc2c(c1)N(CCCN1CCC(O)CC1)c1ccccc1S2,-34.1%
14,CCC1(c2ccccc2)C(=O)NCNC1=O,-19%
15,NC(Cn1ccc(=O)c(O)c1)C(=O)O (centres undefined),-8.04%
16,CC(C)NCC(O)COc1ccc(CC(N)=O)cc1 (centres undefined),-22.9%
17,COc1ccccc1-c1cc(=O)c2c(OC)cccc2o1,2.21%
18,COC(=O)Nc1nc2cc(Sc3ccccc3)ccc2[nH]1,-21.1%
19,CN1CCN(CC(=O)N2c3ccccc3C(=O)Nc3cccnc32)CC1,-25.5%
20,Clc1cccc(Cl)c1NC1=NCCN1,-12.4%
21,N=C(N)NCCCCNC(=N)N,-16.2%
22,O=C1CCCCC/C=C\CCCCCCCCO1,-41.6%
23,CCN(CC)C(C)CN1c2ccccc2Sc2ccccc21 (centres undefined),-28.2%
24,CCCNC(=O)NS(=O)(=O)c1ccc(Cl)cc1,-9.07%

# An excerpt from above in order of count of non-hydrogen atoms, ascending:
row,SMILES,growth inhibition
16,CC(C)NCC(O)COc1ccc(CC(N)=O)cc1 (centres undefined),-22.9%
9,CC(=O)OC1CC(O)C(C)(C)C2CC(=O)C3(C)C(CCC4(C)C(c5ccoc5)OC(=O)C5OC543)C12C (centres undefined),0.74%
3,CC(=O)O[C@@H]1/C=C/[C@@](C)(O)C(=O)[C@@H](C)C/C=C/[C@H]2[C@@H]3O[C@]3(C)[C@@H](C)[C@H]3[C@H](Cc4ccccc4)NC(=O)[C@@]312,-8.58%

# Next part.

row,SMILES,growth inhibition
1,CNCCc1ccccn1,-28.5%
2,NCCCCCC(=O)O,-31.1%
3,C=CC(C)(C)c1c2c(c(O)c3c(=O)c4ccc(O)c(O)c4oc13)C=CC(C)(C)O2,-6.06%
4,NC1(C(=O)O)CC1,-41.8%
5,Oc1cc2c(cc1O)C1c3ccc(O)c(O)c3OCC1(O)C2 (centres undefined),-14.1%
6,C[C@H]1[C@H](C)CC[C@]2(C(=O)O)CC[C@]3(C)C(=CC[C@@H]4[C@@]5(C)CC[C@H](O)C(C)(C)[C@@H]5CC[C@]43C)[C@H]12,-3.15%
7,Oc1ccc2c(c1)OC[C@H]1c3cc4c(cc3O[C@@H]21)OCO4,4.48%
8,CC(=O)[C@@]1(O)CC[C@H]2[C@@H]3CCC4=CC(=O)CC[C@]4(C)[C@H]3CC[C@@]21C,-0.558%
9,O=C1NCC2(CCN(CCc3ccccc3)CC2)O1,-30.9%
10,CN(C)CCOC(c1ccccc1)c1ccccc1.Cn1c(=O)c2[nH]c(Cl)nc2n(C)c1=O,-4.04%
11,C[C@@H]1CC[C@@]23CCC4(C)[C@@](C=CC5[C@@]6(C)CC[C@H](O)C(C)(C)C6CC[C@]54C)(OC2=O)C3[C@H]1C (some centres undefined),-1.32%
12,COc1cc2oc(=O)c3oc4c5c(ccc4c(=O)c3c2cc1OC)OC(C)(C)CC5 [beta-DIHYDROROTENONE],4.5%
13,CSCC[C@H](NC=O)C(=O)N[C@@H](Cc1ccccc1)C(=O)O,-8.94%
14,CC(=O)O[C@@H]1C[C@H]2C(C)(C)C(=O)C=C[C@]2(C)[C@H]2CC[C@@]3(C)[C@H](c4ccoc4)OC(=O)[C@H]4O[C@]43[C@@]21C,7.51%
15,CC(NCCc1ccc(O)cc1)C(O)c1ccc(O)cc1 (centres undefined),-5.9%
16,CCC1(C)CC(=O)NC1=O (centres undefined),-9.42%
17,CC1(C)CC2C1CC[C@]1(CBr)CCC3C(CC(=O)O)C(=O)O[C@@]32C1 (some centres undefined) [BROMO-3-HYDROXY-4- (SUCCIN-2-YL)-CARYOLANE gamma-LACTONE],-14.2%
18,CC(=O)Oc1ccc(C(c2ccc(OC(C)=O)cc2)c2ccccn2)cc1,-39.3%
19,CCC(C)(C)C(=O)O[C@H]1C[C@@H](C)C=C2C=C[C@H](C)[C@H](CC[C@@H]3C[C@@H](O)CC(=O)O3)[C@H]21,-25.5%
20,CCCc1nn(C)c2c(=O)[nH]c(-c3cc(S(=O)(=O)N4CCN(C)CC4)ccc3OCC)nc12,-37.2%
21,COc1cc(O)c(C(=O)/C=C/c2ccccc2)c(OC)c1,3.7%
22,NNC(=O)c1ccncc1.Nc1ccc(C(=O)O)c(O)c1,-10.9%
23,O=C1CC[C@]23/C=C/C(=O)NCCCCNCCCNC(=O)/C=C/c4ccc(c2c4)O[C@@H]3C1,-3.17%
24,O=C1O[C@H]([C@@H](O)CO)C(O)=C1O,-2.93%

# Molecules listed so far with a carbonyl joined to an NH by a bond outside any ring:
row,SMILES,growth inhibition
16,CC(C)NCC(O)COc1ccc(CC(N)=O)cc1 (centres undefined),-22.9%
18,COC(=O)Nc1nc2cc(Sc3ccccc3)ccc2[nH]1,-21.1%
24,CCCNC(=O)NS(=O)(=O)c1ccc(Cl)cc1,-9.07%
13,CSCC[C@H](NC=O)C(=O)N[C@@H](Cc1ccccc1)C(=O)O,-8.94%
22,NNC(=O)c1ccncc1.Nc1ccc(C(=O)O)c(O)c1,-10.9%

# (further entries)

row,SMILES,growth inhibition
1,Clc1ccc(C(c2ccccc2Cl)C(Cl)Cl)cc1 (centres undefined),-2.56%
2,CSCCC(NC=O)C(=O)NC(C)C(=O)O (centres undefined),-8.94%
3,O=C(O)c1ccccc1Nc1cccc(C(F)(F)F)c1,-5.92%
4,Cc1cc(=O)c2c(O)cc(O)c(C)c2o1,-1.67%
5,Nc1ccc(C(=O)O)c(O)c1,-3.24%
6,C[C@@H]1CC[C@@]2(OC1)O[C@H]1C[C@H]3[C@@H]4CC=C5C[C@@H](O)CC[C@]5(C)[C@H]4CC[C@]3(C)[C@H]1[C@@H]2C,9.31%
7,Nc1nc(/C(=C/CC(=O)O)C(=O)N[C@@H]2C(=O)N3C(C(=O)O)=CCS[C@H]23)cs1,-21.1%
8,CC(C)CCC[C@@H](C)[C@H]1CC[C@H]2[C@@H]3CC[C@@H]4C[C@H](O)CC[C@]4(C)[C@H]3CC[C@]12C,-2.99%
9,NCCCS(=O)(=O)O,-33.4%
10,O=C(/C=C/c1ccccc1)c1ccc(O)cc1,20.7%
11,CC1=CC(=O)C2=C(C)CC[C@@H]3[C@H](OC(=O)[C@H]3C)[C@@H]12,4.96%
12,CN(C)CCOC(=O)C(c1ccccc1)C1(O)CCCC1 (centres undefined),-5.29%
13,Nc1ccc(/N=N/c2ccccc2)c(N)n1,-12.5%
14,CCCCC(=O)N(Cc1ccc(-c2ccccc2-c2nnn[nH]2)cc1)[C@H](C(=O)O)C(C)C,4.84%
15,C[C@H]1C(=O)CC[C@@H]2[C@]1(C)CC[C@H]1[C@@]2(C)CC[C@@]2(C)[C@@H]3CC(C)(C)CC[C@]3(C)CC[C@]12C,-16.9%
16,OC(CCN1CCCCC1)(c1ccccc1)c1ccccc1,-8.62%
17,CCN(CC)CCNC(=O)c1cc(Br)c(N)cc1OC,-3.78%
18,O=c1c(O)cccc2c([C@H]3Oc4cc(O)cc(O)c4C[C@H]3O)cc(O)c(O)c12,82.5%
19,CCOC(N)=O,5.93%
20,COc1cc(C(=O)O)c(O)c2c1OCO2,-3.8%
21,COc1ccc(-c2cc(=O)c3c(O)cc(O[C@H]4O[C@H](CO[C@@H]5O[C@@H](C)[C@H](O)[C@@H](O)[C@H]5O)[C@@H](O)[C@H](O)[C@H]4O)cc3o2)cc1,-5.81%
22,O=C1c2cccc(O)c2C(=O)c2c(O)cccc21,-21.6%
23,CC(C)NNC(=O)c1ccncc1,-35.5%
24,CCCCCCCCCCCC[C@@H](C(=O)O)[C@H](C)C(=O)O,-7.2%

row,SMILES,growth inhibition
1,O=C(O)c1cc(=O)c2ccccc2[nH]1,-29%
2,CN(C)CCc1c[nH]c2ccc(CS(=O)(=O)N3CCCC3)cc12,-25.8%
3,COc1cc(/C=C/CO)ccc1O,10.5%
4,CN1CCN2c3ccccc3Cc3ccccc3C2C1 (centres undefined),-9.71%
5,N[C@@H](Cc1ccc(O)c(O)c1)C(=O)O,1.93%
6,CCC(C)C(NC)C(=O)O (centres undefined),-8.63%
7,COc1ccc(-c2coc3cc(O)ccc3c2=O)c(OC)c1,-12.8%
8,O=C(O)CCC(=O)c1ccc(-c2ccccc2)cc1,-4.08%
9,O=C1c2c(O)ccc(O)c2C(=O)c2c(NCCNCCO)ccc(NCCNCCO)c21,-19%
10,C[C@@H]1O[C@@H](O[C@H]2[C@H](O[C@H]3CC[C@@]4(C)[C@@H](CC[C@]5(C)[C@@H]4CC=C4[C@@H]6CC(C)(C)CC[C@]6(C(=O)O)CC[C@]45C)[C@]3(C)CO)OC[C@H](O)[C@@H]2O)[C@H](O)[C@H](O)[C@H]1O,91.2%
11,C[C@H](CCC(=O)O)[C@H]1CC[C@H]2[C@@H]3C(=O)C[C@@H]4CC(=O)CC[C@]4(C)[C@H]3CC(=O)[C@]12C,-6.55%
12,CO[C@H]1C[C@H](O[C@@H]2/C(C)=C/C[C@@H]3C[C@@H](C[C@]4(CC[C@H](C)[C@@H](C5CCCCC5)O4)O3)OC(=O)[C@@H]3C=C(C)/C(=N/O)[C@H]4OC/C(=C\C=C\[C@@H]2C)[C@]43O)O[C@@H](C)[C@@H]1O,-6.06%
13,Cc1nc2sccn2c(=O)c1CCN1CCC(=C(c2ccc(F)cc2)c2ccc(F)cc2)CC1,-19.2%
14,C[N+](C)(C)CCOC(N)=O,-11.3%
15,COC(=O)C[C@H]1C2(C)CC34OC5(C)O[C@@]6([C@H](OC)C(OC(=O)C(C)C)[C@]7(C)C(/C(=C(/OC)C(C)C)C(=O)O[C@H]7c7ccoc7)[C@@]6(O5)[C@H](OC)[C@@]3(OC)C2OC(C)=O)[C@]14C (some centres undefined),-9.33%
16,COC(=O)[C@H]1[C@H]2C[C@H]3c4[nH]c5cc(OC)ccc5c4CCN3C[C@H]2C[C@@H](OC(=O)c2cc(OC)c(OC)c(OC)c2)[C@@H]1OC,-1.34%
17,COc1cc(O)cc(OC)c1OC,-2.64%
18,COC(=O)CC1C2(C)CC34OC5(C)OC6(C7/C(=C(/O)C(C)C)C(=O)OC(c8ccoc8)C7(C)C(OC(=O)C(C)C)C(OC)C6(O5)C13C)C(OC)C4(OC)C2OC(C)=O (centres undefined),-0.794%
19,CC1(C)O[C@@H]2C[C@H]3[C@@H]4C[C@H](F)C5=CC(=O)CC[C@]5(C)[C@H]4[C@@H](O)C[C@]3(C)[C@]2(C(=O)CO)O1,-8.7%
20,CC1=CCc2c(cc3oc(C)cc(=O)c3c2O)OC1,-13.1%
21,CC1(C)CC2C1CCC1(C)OC1CCC2(C)O (centres undefined),-20.7%
22,COc1ccc(/C=C/c2cc(O)cc(O[C@@H]3O[C@H](CO)[C@@H](O)[C@H](O)[C@H]3O)c2)cc1O,-37.4%
